Measurements reported in PubChem BioAssay AID1259298 (Sanger Institute, 2017)
Assay: 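Kinase knock-downs that cut colorectal cancer cell viability or act with targeted drugs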 (primary screen). Cells: HT55 human colorectal cancer cell line. Knock-down reagent: siRNA pool against human genes. Treatment: anchor drug BYL719 1 µM, cetuximab 5 µg/ml or trametinib 10 nM, or DMSO vehicle alone. Measurement: 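Mean viability over replicates versus non-targeting pool, a robust z-score without drug, and per-drug synergy scores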. Direction: robust z-score, knock-down alone: higher = more cells remaining; low means essential gene; viability vs control pool, no drug: higher = more viable cells. Units: viability vs control pool, no drug in fraction. Rule for the call: 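a gene counts as essential if its knock-down-alone robust z-score falls under -3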. Calls: active = essential (knock-down alone); inactive = no change alone.
This is a random part of 794 reagents tested. 20 of all reagents (2.5%) count as active. 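Calls rest only on the knock-down-alone score; drug synergy scores played no part in them.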 Unmarked entries are inactive. Viability is capped at 1. Further read-outs or replicates are left out here. The record does not give: the amount of reagent, the time to read-out.

The opening 2 records as a preview:
PRKAG1
- robust z-score, knock-down alone: 0.58
- viability vs control pool, no drug: 1

TP53RK
- robust z-score, knock-down alone: 0.58
- viability vs control pool, no drug: 1

The listing, repeating the preview:
PRKAG1
- robust z-score, knock-down alone: 0.58
- viability vs control pool, no drug: 1

TP53RK
- robust z-score, knock-down alone: 0.58
- viability vs control pool, no drug: 1

TRIO
- robust z-score, knock-down alone: 0.58
- viability vs control pool, no drug: 1

SCYL1
- robust z-score, knock-down alone: 0.58
- viability vs control pool, no drug: 1

DAPK2
- robust z-score, knock-down alone: 0.58
- viability vs control pool, no drug: 1

STK25
- robust z-score, knock-down alone: 0.58
- viability vs control pool, no drug: 1

PFKFB3
- robust z-score, knock-down alone: -1.53
- viability vs control pool, no drug: 0.835

PRKY
- robust z-score, knock-down alone: -0.375
- viability vs control pool, no drug: 0.925

CDK15
- robust z-score, knock-down alone: 0.58
- viability vs control pool, no drug: 1

MAGI3
- robust z-score, knock-down alone: 0.58
- viability vs control pool, no drug: 1

ATR
- robust z-score, knock-down alone: 0.237
- viability vs control pool, no drug: 0.973

FGFR4
- robust z-score, knock-down alone: 0.58
- viability vs control pool, no drug: 1
